According to article PMC4933465:
These are yes or no findings as the source states them, for the method shown. Some entries that bind do so weakly or less than the wild type.

Protein sequences, listed by entry. Tags and fused reporters are not part of them. Lines headed by an entry give the natural chain unless they say otherwise; changes in a name come on top. Chains listed by the source or under a name are the forms on record and can include a tag or linker. Residues count along the entry.
UniProt P98066, residues 36-133: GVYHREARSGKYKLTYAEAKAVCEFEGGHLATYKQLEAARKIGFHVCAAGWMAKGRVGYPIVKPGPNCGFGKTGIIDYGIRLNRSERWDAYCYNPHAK
CCL2 R18A/K19A (P13500, form named): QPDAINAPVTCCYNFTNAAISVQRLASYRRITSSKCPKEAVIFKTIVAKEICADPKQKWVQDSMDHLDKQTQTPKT
CCL5 R44A/K45A/R47A (P13501, form named): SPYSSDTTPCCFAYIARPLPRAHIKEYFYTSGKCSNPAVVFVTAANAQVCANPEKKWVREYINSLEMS
CCL7 K18A/K19A/K22A (P80098, form named): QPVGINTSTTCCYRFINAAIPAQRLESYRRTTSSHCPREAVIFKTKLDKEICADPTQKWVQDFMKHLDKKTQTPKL

What follows are substances tested against Link_TSG6 (recombinant Link module from human TSG-6) (human) (UniProt P98066) (assay: SPR; Link_TSG6 amine-coupled to a C1 chip (800–1000 RU), chemokine as analyte; BIAcore 3000; 10 mM HEPES, 150 mM NaCl, 0.05% Tween 20, pH 7.4; 40 μl/min; 1:1 Langmuir model; apparent affinities; both purified).

| Substance | binding |
| --- | --- |
| CCL2 R18A/K19A (from UniProt P13500 24-99) (ligand) | no binding (tested: 1000 nM) |
| CCL5 R44A/K45A/R47A (from UniProt P13501 24-91) (ligand) | no binding (tested: 200 nM) |
| CCL7 K18A/K19A/K22A (from UniProt P80098 24-99) (ligand) | binds weakly |
